The test system of the test is CD2F1 mice, L1210 leukemia ip, survival T/C. Kind of test: NCI In Vivo Anticancer Drug Screen. Data for tumor model L1210 Leukemia (intraperitoneal) in CD2F1 (CDF1) mice. The following applies: higher T/C = longer survival. The essentials:
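Ratio T/C, where T is the treated-group value and C the vehicle-dosed control value, from mice implanted with a transplantable tumor.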

The mark [1] stands for this setting: T/C endpoint: mean survival time, dose: 300.0 mg/kg/injection, schedule: Q01DX001 (ip), vehicle: saline.
The mark [2] stands for this setting: T/C endpoint: mean survival time, dose: 200.0 mg/kg/injection, schedule: Q01DX009 (ip), vehicle: saline sonified.
The mark [3] stands for this setting: T/C endpoint: mean survival time, dose: 100.0 mg/kg/injection, schedule: Q04DX003 (ip), vehicle: saline with Tween-80.
Where [4] appears, read: T/C endpoint: mean survival time, dose: 200.0 mg/kg/injection, schedule: Q04DX003 (ip), vehicle: saline with Tween-80.
Setting [5] is: T/C endpoint: mean survival time, dose: 400.0 mg/kg/injection, schedule: Q04DX003 (ip), vehicle: saline with Tween-80.

Here are results for 16 compounds from PubChem BioAssay AID256 (DTP/NCI, 2004).

The list is a part of this screen's results and no random one: it is rich in T/C values a quarter to a half above the control, in often repeated tests (any T/C) and in doses without a T/C. Further doses and runs are listed elsewhere. T/C gives the treated animals as a percentage of the vehicle group. Some doses have a count of surviving animals in place of a T/C: the source files T/C as zero there, which appears to mark a toxic dose or a test without result, not a measured value. Some survivor counts are full or nearly so, which does not show that the dose was tolerated: survival well below the control is almost never listed, so the zero probably covers shortened survival too. Survivors were counted at the toxicity check, usually on the fifth day, unless a day is given; later deaths do not show. Schedule codes are those of the source, read here as Q, the interval in days (D) or hours (H), X, the number of doses. For survival time, this PubChem deposit counts one and a half times the control or more as active, and values a quarter to a half above the control carry no call in these data; other NCI protocols may use other cut-offs. Some entries hold several experiments; the results are listed from low to high. Some T/C values are followed by the survivors on the day toxicity was checked, most often the fifth; where none is given, no animal had died by that day.

For the compound `CO[C@@]12[C@@H]3N[C@@H]3CN1C1=C(C(=O)C(Nc3cccc(O)c3)=C(C)C1=O)[C@@H]2COC(N)=O`, the T/C runs as follows: (T/C endpoint: median survival time, dose: 1.5 mg/kg/injection, schedule: Q01DX001 (ip), vehicle: distilled water + Tween-80) 135 % of control; (T/C endpoint: median survival time, dose: 3.0 mg/kg/injection, schedule: Q01DX001 (ip), vehicle: distilled water + Tween-80) 139 % of control; (T/C endpoint: median survival time, dose: 3.0 mg/kg/injection, schedule: Q01DX001 (ip), vehicle: water) 144 % of control; (T/C endpoint: median survival time, dose: 6.0 mg/kg/injection, schedule: Q01DX001 (ip), vehicle: distilled water + Tween-80) 135 % of control; (T/C endpoint: median survival time, dose: 6.0 mg/kg/injection, schedule: Q01DX001 (ip), vehicle: water) 138 and 147 % of control; (T/C endpoint: median survival time, dose: 12.0 mg/kg/injection, schedule: Q01DX001 (ip), vehicle: distilled water + Tween-80) 139 % of control. In addition, the T/C (T/C endpoint: median survival time, dose: 12.0 mg/kg/injection, schedule: Q01DX001 (ip), vehicle: water) is 136 % of control. The survivor count (T/C endpoint: median survival time, dose: 24.0 mg/kg/injection, schedule: Q01DX001 (ip), vehicle: water) was 6 of 6.

As to `N#CCCN(C(=S)Nc1cccc(C(F)(F)F)c1)C1CCCCC1`, where the note is “T/C endpoint: median survival time, dose: 800.0 mg/kg/injection, schedule: Q01DX009 (ip), vehicle: Klucel (hydroxypropylcellulose) (HPC)”, the survivor count was 0 of 6.

For the compound `O=C(CCOP(=O)(NCCCl)NCCCl)c1ccccc1`, the T/C is, setting by setting: (T/C endpoint: median survival time, dose: 62.5 mg/kg/injection, schedule: Q01DX001 (ip), vehicle: saline with Tween-80) 142 % of control; (T/C endpoint: median survival time, dose: 125.0 mg/kg/injection, schedule: Q01DX001 (ip), vehicle: saline with Tween-80) 138 % of control. Under “T/C endpoint: median survival time, dose: 500.0 mg/kg/injection, schedule: Q01DX001 (ip), vehicle: saline with Tween-80”, the survivor count is listed as 4 of 6.

Consider `CC[N+](C)(CC)c1cccc(OC(=O)NC)c1`, for which the survivor count by setting is: (T/C endpoint: mean survival time, dose: 75.0 mg/kg/injection, schedule: Q01DX001 (ip), vehicle: saline) 0 of 6; (T/C endpoint: mean survival time, dose: 150.0 mg/kg/injection, schedule: Q01DX001 (ip), vehicle: saline) 0 of 6; under setting [1], 0 of 6.

As for `COc1ccc2[nH]c(=O)oc(=O)c2c1`, the survivor count is on record as 3 of 6 (T/C endpoint: mean survival time, dose: 200.0 mg/kg/injection, schedule: Q01DX009 (ip), vehicle: saline with Tween-80) and 3 of 6 (T/C endpoint: mean survival time, dose: 400.0 mg/kg/injection, schedule: Q01DX009 (ip), vehicle: saline with Tween-80).

On to `C/C=C1\CC2C=CC1C2` (configuration not stated) (tested in a mixture with another compound), for which, where the note is “T/C endpoint: mean survival time, dose: 322.0 mg/kg/injection, schedule: Q01DX009 (ip), vehicle: saline with Tween-80”, the survivor count was 6 of 6.

`NC(N)=NC(N)=Nc1ccc([As](=O)(O)O)c(O)c1`: the survivor count is reported as 1 of 6 under setting [2] and 0 of 6 (T/C endpoint: mean survival time, dose: 400.0 mg/kg/injection, schedule: Q01DX009 (ip), vehicle: saline sonified).

In the case of `CC(=O)NO`, the T/C by setting is: (T/C endpoint: median survival time, dose: 200.0 mg/kg/injection, schedule: Q01DX009 (ip), vehicle: water) 135 % of control; (T/C endpoint: median survival time, dose: 200.0 mg/kg/injection, schedule: Q03HX024 (ip), vehicle: water) 143 % of control; (T/C endpoint: median survival time, dose: 400.0 mg/kg/injection, schedule: Q01DX009 (ip), vehicle: water) 144 % of control; (T/C endpoint: median survival time, dose: 500.0 mg/kg/injection, schedule: Q01DX009 (ip), vehicle: water) 141 % of control; (T/C endpoint: median survival time, dose: 1000.0 mg/kg/injection, schedule: Q01DX009 (ip), vehicle: water) 148 % of control. Besides, the survivor count (T/C endpoint: median survival time, dose: 1200.0 mg/kg/injection, schedule: Q01DX009 (ip), vehicle: water) is on record as 4 of 6 and the survivor count (T/C endpoint: median survival time, dose: 1600.0 mg/kg/injection, schedule: Q01DX009 (ip), vehicle: water) was 4 of 6.

With `C[N+](C)(Cc1ccc(F)cc1)C1c2ccccc2-c2ccccc21`, the survivor count is given as 1 of 6 under setting [3], 0 of 6 under setting [4] and 0 of 6 under setting [5].

`[CH3][Pb]([CH3])([CH3])[Cl]`: the survivor count by setting is: (T/C endpoint: mean survival time, dose: 6.25 mg/kg/injection, schedule: Q01DX009 (ip), vehicle: saline) 3 of 6; (T/C endpoint: mean survival time, dose: 12.5 mg/kg/injection, schedule: Q01DX009 (ip), vehicle: saline) 0 of 6; (T/C endpoint: mean survival time, dose: 25.0 mg/kg/injection, schedule: Q01DX009 (ip), vehicle: saline) 0 of 6; (T/C endpoint: mean survival time, dose: 25.0 mg/kg/injection, schedule: Q04DX002 (ip), vehicle: saline) 0 of 3; (T/C endpoint: mean survival time, dose: 50.0 mg/kg/injection, schedule: Q01DX009 (ip), vehicle: saline) 0 of 6; (T/C endpoint: mean survival time, dose: 50.0 mg/kg/injection, schedule: Q04DX002 (ip), vehicle: saline) 0 of 3. Further, the survivor count is 0 of 3 (T/C endpoint: mean survival time, dose: 100.0 mg/kg/injection, schedule: Q04DX002 (ip), vehicle: saline with Tween-80); 0 of 3 (T/C endpoint: mean survival time, dose: 200.0 mg/kg/injection, schedule: Q04DX002 (ip), vehicle: saline with Tween-80); 0 of 3 (T/C endpoint: mean survival time, dose: 400.0 mg/kg/injection, schedule: Q04DX002 (ip), vehicle: saline with Tween-80).

As to `CC(N)CCCO` (configuration not stated), the T/C (T/C endpoint: mean survival time, dose: 100.0 mg/kg/injection, schedule: Q01DX001 (ip), vehicle: saline) is 132 % of control [3 of 4 alive].

For the compound `CC(C)CCNCCO`, under setting [1], the survivor count is on record as 2 of 6.

Consider `Cc1cc2cc3cc(C)c(N)cc3nc2cc1N`, for which the survivor count (T/C endpoint: mean survival time, dose: 100.0 mg/kg/injection, schedule: Q01DX009 (ip), vehicle: saline with Tween-80) is reported as 2 of 6.

With `[Cl][Pt+2][Cl].[NH-]c1cccc(C(F)(F)F)c1.[NH-]c1cccc(C(F)(F)F)c1`, the survivor count is on record as 2 of 6 under setting [3] and 0 of 6 under setting [4].

Turning to `CC1CC[N-]CC1.CC1CC[N-]CC1.CC1CC[N-]CC1.CC1CC[N-]CC1.[Cl][Rh][Cl]`, the survivor count was 5 of 6 under setting [2] and 0 of 6 under setting [5].

Regarding `COC(=O)C1CCC[N+](C)(C)C1` (configuration not stated), the survivor count (T/C endpoint: mean survival time, dose: 100.0 mg/kg/injection, schedule: Q01DX009 (ip), vehicle: saline) is recorded as 3 of 6.
